# Earlier results in publication PMC5716539, “The acute glucose lowering effect of specific GPR120 activation in mice is mainly driven by glucagon-like peptide 1” (PLoS ONE, 2017).
# Test system: Caco-2 cells
# Settings: cited from earlier work
smiles,measurement,value
Cc1ccc(-c2ccc(F)cc2COc2ccc(CCC(=O)O)cc2)cc1 [TUG-891],β-arrestin-2 recruitment in Caco-2 cells,recruited β-arrestin-2
